The other results are listed elsewhere or left out. Most entries show no effect beyond the scatter of the controls.

Chains of the proteins cited; added tags and fusions are not shown. Lines headed by an entry give the natural chain unless they say otherwise; changes in a name come on top.
UniProt O75943: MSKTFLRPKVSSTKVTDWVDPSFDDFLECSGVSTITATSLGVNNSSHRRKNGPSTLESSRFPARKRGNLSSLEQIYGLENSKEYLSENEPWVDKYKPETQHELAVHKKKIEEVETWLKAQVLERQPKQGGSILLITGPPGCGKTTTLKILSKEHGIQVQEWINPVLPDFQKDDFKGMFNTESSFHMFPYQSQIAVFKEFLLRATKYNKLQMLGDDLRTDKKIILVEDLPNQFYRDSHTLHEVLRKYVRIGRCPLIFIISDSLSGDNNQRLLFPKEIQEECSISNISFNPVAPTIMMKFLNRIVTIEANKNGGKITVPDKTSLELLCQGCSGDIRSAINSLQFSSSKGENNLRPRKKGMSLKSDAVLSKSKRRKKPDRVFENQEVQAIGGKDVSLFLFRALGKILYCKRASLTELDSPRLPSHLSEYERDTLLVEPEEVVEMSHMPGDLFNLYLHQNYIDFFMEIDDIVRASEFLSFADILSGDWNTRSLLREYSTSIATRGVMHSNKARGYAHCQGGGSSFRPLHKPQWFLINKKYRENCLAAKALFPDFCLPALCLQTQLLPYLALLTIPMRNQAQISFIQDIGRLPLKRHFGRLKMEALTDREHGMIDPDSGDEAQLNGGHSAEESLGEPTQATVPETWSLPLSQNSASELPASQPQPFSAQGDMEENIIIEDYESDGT
UniProt O75928, whole entry: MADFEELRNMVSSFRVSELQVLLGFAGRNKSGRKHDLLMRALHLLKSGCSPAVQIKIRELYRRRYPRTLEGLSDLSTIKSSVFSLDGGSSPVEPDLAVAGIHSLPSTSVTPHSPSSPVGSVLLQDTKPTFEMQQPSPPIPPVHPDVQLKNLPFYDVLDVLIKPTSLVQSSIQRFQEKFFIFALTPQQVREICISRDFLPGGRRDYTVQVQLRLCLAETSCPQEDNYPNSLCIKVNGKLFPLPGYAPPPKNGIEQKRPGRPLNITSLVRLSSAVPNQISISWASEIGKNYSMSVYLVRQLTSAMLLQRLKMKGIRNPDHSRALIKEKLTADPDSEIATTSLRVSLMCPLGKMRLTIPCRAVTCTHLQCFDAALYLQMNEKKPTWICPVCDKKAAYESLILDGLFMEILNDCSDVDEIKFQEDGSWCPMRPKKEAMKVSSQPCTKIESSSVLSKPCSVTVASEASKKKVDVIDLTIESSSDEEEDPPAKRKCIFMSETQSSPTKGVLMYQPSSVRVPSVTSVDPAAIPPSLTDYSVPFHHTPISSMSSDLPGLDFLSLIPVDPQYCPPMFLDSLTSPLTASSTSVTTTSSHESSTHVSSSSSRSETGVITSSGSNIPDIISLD
UniProt O77932: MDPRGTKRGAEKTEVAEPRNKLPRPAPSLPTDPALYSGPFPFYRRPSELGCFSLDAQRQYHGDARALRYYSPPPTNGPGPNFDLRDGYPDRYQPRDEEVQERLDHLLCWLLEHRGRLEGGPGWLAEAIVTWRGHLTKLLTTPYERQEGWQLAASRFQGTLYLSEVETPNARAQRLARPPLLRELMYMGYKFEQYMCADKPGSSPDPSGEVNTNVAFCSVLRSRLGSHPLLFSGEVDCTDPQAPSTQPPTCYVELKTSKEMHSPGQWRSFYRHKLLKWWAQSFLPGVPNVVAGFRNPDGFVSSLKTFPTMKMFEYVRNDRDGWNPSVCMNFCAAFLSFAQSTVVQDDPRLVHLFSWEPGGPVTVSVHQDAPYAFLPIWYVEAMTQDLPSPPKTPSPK
UniProt O95352: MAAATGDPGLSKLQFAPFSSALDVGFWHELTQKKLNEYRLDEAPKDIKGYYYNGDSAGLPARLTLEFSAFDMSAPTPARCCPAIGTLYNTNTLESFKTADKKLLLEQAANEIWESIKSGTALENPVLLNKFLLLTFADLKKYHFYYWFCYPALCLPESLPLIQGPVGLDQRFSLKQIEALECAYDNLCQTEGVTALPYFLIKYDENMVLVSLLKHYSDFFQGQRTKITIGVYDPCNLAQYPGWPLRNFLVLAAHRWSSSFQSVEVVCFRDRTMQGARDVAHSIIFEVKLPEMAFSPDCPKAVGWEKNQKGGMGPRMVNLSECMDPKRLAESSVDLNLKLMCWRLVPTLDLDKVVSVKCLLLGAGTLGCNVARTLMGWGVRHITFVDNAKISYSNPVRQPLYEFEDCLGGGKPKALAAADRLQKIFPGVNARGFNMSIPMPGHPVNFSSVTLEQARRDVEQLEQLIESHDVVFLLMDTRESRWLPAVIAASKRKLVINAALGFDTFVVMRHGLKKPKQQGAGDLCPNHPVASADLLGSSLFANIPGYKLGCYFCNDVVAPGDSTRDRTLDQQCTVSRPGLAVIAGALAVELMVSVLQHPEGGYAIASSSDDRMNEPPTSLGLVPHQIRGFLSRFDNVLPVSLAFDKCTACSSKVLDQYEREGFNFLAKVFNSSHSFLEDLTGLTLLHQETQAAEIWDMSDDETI
UniProt O95721: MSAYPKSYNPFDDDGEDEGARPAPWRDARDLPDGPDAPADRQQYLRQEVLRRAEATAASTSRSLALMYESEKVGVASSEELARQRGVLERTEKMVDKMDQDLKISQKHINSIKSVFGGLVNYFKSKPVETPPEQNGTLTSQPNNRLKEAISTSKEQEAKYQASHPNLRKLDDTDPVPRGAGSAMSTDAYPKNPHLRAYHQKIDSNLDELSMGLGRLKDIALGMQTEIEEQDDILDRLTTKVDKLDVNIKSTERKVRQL
UniProt O94842: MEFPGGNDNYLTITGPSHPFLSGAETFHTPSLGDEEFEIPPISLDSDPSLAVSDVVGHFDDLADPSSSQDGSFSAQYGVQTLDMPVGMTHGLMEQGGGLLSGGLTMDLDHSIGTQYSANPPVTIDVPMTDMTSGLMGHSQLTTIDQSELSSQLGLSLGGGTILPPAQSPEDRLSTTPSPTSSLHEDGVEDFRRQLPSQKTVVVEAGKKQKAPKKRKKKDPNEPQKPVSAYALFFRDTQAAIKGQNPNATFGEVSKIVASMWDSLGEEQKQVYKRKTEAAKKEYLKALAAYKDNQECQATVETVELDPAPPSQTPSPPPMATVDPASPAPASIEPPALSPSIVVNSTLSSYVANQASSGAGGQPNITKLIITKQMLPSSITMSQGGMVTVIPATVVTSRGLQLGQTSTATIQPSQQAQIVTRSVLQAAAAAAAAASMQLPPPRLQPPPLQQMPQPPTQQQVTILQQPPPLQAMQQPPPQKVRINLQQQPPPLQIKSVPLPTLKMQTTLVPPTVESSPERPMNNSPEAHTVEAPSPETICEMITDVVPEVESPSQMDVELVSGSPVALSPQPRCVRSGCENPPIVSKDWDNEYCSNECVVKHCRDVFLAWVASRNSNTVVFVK
UniProt O96006: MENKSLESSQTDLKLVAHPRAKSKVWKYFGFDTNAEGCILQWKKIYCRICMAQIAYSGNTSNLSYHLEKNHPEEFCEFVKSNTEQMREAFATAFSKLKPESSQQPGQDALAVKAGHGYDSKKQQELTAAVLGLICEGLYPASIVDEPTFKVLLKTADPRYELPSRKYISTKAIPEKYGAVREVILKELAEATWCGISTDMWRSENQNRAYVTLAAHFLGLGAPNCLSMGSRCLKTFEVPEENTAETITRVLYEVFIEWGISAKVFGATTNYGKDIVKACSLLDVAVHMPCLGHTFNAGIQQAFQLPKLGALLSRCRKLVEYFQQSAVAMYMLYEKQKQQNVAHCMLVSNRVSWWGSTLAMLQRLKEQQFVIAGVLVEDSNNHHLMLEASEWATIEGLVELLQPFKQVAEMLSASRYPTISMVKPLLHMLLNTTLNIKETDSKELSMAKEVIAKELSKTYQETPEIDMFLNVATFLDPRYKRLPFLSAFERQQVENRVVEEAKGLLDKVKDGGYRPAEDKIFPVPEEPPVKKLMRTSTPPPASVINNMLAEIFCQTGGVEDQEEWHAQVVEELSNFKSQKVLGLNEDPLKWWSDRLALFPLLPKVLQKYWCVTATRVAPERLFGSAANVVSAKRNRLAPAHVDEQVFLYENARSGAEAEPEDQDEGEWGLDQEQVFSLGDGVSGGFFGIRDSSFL
UniProt O94804: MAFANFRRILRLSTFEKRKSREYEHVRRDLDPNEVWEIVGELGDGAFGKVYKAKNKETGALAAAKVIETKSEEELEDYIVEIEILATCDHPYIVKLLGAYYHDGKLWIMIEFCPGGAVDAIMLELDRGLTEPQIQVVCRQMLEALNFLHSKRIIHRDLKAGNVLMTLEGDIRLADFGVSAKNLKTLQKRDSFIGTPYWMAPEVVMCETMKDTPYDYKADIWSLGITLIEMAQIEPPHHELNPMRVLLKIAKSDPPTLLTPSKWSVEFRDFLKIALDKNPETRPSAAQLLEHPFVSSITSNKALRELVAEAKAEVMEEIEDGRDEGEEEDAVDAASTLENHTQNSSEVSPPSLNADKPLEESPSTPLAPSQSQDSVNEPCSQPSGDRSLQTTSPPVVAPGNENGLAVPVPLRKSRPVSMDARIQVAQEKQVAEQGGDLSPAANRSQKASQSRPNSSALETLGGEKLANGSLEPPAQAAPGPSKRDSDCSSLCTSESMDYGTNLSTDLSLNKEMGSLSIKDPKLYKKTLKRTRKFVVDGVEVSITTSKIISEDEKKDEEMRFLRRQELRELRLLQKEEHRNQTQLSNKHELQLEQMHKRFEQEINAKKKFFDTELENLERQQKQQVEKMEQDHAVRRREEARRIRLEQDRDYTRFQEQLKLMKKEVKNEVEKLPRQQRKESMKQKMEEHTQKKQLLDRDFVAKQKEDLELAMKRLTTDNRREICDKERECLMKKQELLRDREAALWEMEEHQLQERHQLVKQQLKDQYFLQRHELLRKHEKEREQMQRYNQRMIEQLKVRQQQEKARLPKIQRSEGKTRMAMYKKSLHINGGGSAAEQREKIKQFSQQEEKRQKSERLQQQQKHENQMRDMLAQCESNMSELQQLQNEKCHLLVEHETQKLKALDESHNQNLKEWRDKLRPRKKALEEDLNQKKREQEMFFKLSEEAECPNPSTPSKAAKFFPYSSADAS
UniProt O95793: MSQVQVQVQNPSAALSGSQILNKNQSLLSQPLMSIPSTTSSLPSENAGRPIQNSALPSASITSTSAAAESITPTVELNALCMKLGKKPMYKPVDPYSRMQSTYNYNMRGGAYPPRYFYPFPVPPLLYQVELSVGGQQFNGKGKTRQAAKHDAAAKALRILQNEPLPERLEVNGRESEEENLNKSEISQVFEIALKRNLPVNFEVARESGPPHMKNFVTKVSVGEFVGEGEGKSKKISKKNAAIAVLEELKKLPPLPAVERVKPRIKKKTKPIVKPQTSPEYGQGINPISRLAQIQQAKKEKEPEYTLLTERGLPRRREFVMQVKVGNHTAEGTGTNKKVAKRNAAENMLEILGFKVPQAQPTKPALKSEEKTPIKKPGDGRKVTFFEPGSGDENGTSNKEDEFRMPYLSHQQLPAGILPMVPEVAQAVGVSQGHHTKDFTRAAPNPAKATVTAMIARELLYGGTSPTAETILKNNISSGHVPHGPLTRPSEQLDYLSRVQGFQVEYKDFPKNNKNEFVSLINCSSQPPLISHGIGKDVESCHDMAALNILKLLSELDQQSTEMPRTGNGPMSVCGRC
UniProt O95197: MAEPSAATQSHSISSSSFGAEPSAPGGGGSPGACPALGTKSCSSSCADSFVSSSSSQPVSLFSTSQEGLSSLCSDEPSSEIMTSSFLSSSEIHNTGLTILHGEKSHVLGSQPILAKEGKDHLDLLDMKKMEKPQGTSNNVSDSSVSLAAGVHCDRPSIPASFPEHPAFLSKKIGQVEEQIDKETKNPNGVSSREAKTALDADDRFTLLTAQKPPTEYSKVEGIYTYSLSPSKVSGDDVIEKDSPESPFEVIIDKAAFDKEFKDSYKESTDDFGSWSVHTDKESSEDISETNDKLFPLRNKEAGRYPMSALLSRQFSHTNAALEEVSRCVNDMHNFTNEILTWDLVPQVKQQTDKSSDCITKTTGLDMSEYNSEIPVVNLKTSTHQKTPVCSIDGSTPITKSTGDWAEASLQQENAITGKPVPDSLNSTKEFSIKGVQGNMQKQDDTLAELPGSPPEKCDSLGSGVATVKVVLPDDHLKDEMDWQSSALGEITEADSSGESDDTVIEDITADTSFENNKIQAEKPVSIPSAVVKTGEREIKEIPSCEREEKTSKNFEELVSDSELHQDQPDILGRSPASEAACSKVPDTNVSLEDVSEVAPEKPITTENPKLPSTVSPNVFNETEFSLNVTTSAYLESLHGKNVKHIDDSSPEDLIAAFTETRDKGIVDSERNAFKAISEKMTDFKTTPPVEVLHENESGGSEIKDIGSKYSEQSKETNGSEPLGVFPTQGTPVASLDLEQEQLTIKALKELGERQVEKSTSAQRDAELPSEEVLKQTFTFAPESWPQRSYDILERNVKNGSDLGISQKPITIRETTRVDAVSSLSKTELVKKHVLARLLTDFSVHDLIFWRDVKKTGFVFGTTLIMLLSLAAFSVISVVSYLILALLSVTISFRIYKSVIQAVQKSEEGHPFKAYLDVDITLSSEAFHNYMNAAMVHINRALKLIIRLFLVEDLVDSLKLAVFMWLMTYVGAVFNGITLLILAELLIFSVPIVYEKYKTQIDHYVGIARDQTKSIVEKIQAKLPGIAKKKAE

Compound in the assay: CN[C@@H]1C[C@H]2O[C@@](C)([C@@H]1OC)n1c3ccccc3c3c4c(c5c6ccccc6n2c5c31)C(=O)NC4 [staurosporine]
The assay is described as follows: log2 fold change of tryptic peptide abundance, ligand vs vehicle (limited proteolysis) (log2 ratio); higher = more trypsin-susceptible (destabilized). The following applies: ligand concentration: 20 uM; sample: K562 cleared lysate; digestion: 4 min, 22 C (HT-PELSA RT4min, Orbitrap Astral).
As to “RAD17 (peptide sequence: DSHTLHEVLRK, peptide start residue: 235) (UniProt O75943)”, the log2 fold change came out at 0.581. In the case of “PIAS2 (peptide sequence: SGCSPAVQIK, peptide start residue: 47) (UniProt O75928)”, the log2 fold change was -0.32.

Take “MTA2 (peptide sequence: TPTQLEGATR, peptide start residue: 406) (UniProt O94776)”: the log2 fold change was 0.358. For “UniProt O75897 (peptide sequence: KLDDKVLDK, peptide start residue: 221)”, the log2 fold change came to 0.00538. The same measure for “PPP1R3D (peptide sequence: VRFADALGLELAQVK, peptide start residue: 103) (UniProt O95685)”: -0.339; for “MBD3 (peptide sequence: YLGGSMDLSTFDFR, peptide start residue: 52) (UniProt O95983)”: -0.465; for “SNX4 (peptide sequence: IASHPILCR, peptide start residue: 165) (UniProt O95219)”: 0.201. Turning to “UniProt O95409 (peptide sequence: LGLPGEVFGR, peptide start residue: 181)”, the log2 fold change was determined as 0.167. As to “UniProt O95071 (peptide sequence: EVVFVEDVK, peptide start residue: 655)”, the log2 fold change was -0.16. Take “UniProt O77932 (peptide sequence: GAEKTEVAEPR, peptide start residue: 9)”: the log2 fold change was -0.109. As for “UniProt O95777 (peptide sequence: GFDQTINLILDESHER, peptide start residue: 29)”, the log2 fold change was -0.32.

As to “ZMPSTE24 (peptide sequence: NEEEGNSEEIKAK, peptide start residue: 304) (UniProt O75844)”, the log2 fold change was -0.794. As to “UniProt O95478 (peptide sequence: AQGETEVLK, peptide start residue: 126)”, the log2 fold change was -0.28. Turning to “ATG7 (peptide sequence: IFPGVNAR, peptide start residue: 424) (UniProt O95352)”, the log2 fold change is 0.356. The value for “SOGA1 (peptide sequence: EREEQQHLLAESYSAVMELTR, peptide start residue: 815) (UniProt O94964)” was 0.64; that for “SNAP29 (peptide sequence: GVLERTEK, peptide start residue: 86) (UniProt O95721)” was 1; that for “CRCP (peptide sequence: HSSGQQNLNTITYETLK, peptide start residue: 35) (UniProt O75575)” was -0.271.

For the target “SNAPC5 (peptide sequence: LKVEELALQSMISSR, peptide start residue: 29) (UniProt O75971)”, the log2 fold change was determined as 0.253. On to “MOCS2 (peptide sequence: EIYEESSTWK, peptide start residue: 168) (UniProt O96007)”, for which the log2 fold change was -0.0993. In the case of “ECD (peptide sequence: IMTSVTFTK, peptide start residue: 258) (UniProt O95905)”, the log2 fold change is -0.123. Consider “UniProt O94822 (peptide sequence: KSEQHLR, peptide start residue: 609)”, for which the log2 fold change is 0.335.

Consider “TOX4 (peptide sequence: LSTTPSPTSSLHEDGVEDFRR, peptide start residue: 173) (UniProt O94842)”, for which the log2 fold change was 0.439.

Take “EIF3J (peptide sequence: RLEEPEEPKVLTPEEQLADK, peptide start residue: 98) (UniProt O75822)”: the log2 fold change came to 0.993. The same measure for “UniProt O75396 (peptide sequence: KVPTVSRPYSFIEFDTFIQK, peptide start residue: 102)”: 0.2; for “ZBED1 (peptide sequence: SLESSQTDLK, peptide start residue: 5) (UniProt O96006)”: -0.154. The value for “UniProt O94804 (peptide sequence: ALDESHNQNLK, peptide start residue: 901)” was 0.53.

In the case of “FMNL1 (peptide sequence: IVSQKDDVHVCIMCLR, peptide start residue: 220) (UniProt O95466)”, the log2 fold change is -0.286. With “UniProt O94903 (peptide sequence: IGSTIFGERDYSK, peptide start residue: 242)”, the log2 fold change worked out at 0.18. “STAU1 (peptide sequence: MQSTYNYNMR, peptide start residue: 99) (UniProt O95793)”: the log2 fold change was 0.357. “PTTG1 (peptide sequence: ATLIYVDKENGEPGTR, peptide start residue: 2) (UniProt O95997)”: the log2 fold change was -0.0954. The same measure for “ZWINT (peptide sequence: EHVEAIKIGLTK, peptide start residue: 105) (UniProt O95229)”: 0.626. With “RTN3 (peptide sequence: SYDILER, peptide start residue: 789) (UniProt O95197)”, the log2 fold change was -0.225. The same measure for “MPZL1 (peptide sequence: KSPSDTEGLVK, peptide start residue: 218) (UniProt O95297)”: 0.171. For the target “TRIM37 (peptide sequence: LQDLGMELLAK, peptide start residue: 732) (UniProt O94972)”, the log2 fold change was determined as 0.221.

For “POLQ (peptide sequence: TPIFGGRPLDILTYK, peptide start residue: 461) (UniProt O75417)”, the log2 fold change was found to be 0.236. With “BAG2 (peptide sequence: TLQQNAESR, peptide start residue: 201) (UniProt O95816)”, the log2 fold change is -0.128.

The values above are taken from the supplement of paper PMC12819154, “High-throughput peptide-centric local stability assay extends protein–ligand identification to membrane proteins, tissues and bacteria” (Nature Structural & Molecular Biology, 2025).
